Laboratory results published in patent US11419955B2, “Multimodal silica-based nanoparticles” (Sloan-Kettering Institute for Cancer Research, priority 2009, dated 2022).
For at least one compound, name, drawing or mass did not settle the structure. Where a SMILES comes first, the peptide text is derived from it. [ ]: non-standard residue; d: D form. The star is where a group is joined. DOTA = O=C(O)CN1CCN(CC(=O)O)CCN(CC(=O)*)CCN(CC(=O)O)CC1

Amino acid sequences for entries named in this document (tags omitted). A change or cut given only in a name is not applied to a line headed by its entry.
UniProt Q01727: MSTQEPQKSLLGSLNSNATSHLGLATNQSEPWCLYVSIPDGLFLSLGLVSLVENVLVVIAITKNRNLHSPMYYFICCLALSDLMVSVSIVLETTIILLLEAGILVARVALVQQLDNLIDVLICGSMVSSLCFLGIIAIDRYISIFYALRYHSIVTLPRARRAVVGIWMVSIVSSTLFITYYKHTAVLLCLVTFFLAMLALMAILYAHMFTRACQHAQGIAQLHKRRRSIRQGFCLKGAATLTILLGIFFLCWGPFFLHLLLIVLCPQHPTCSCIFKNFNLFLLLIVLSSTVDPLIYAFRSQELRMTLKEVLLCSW

Target: melanocortin-1 receptor (Mus musculus, UniProt Q01727)
Experiment: Competitive binding assay with melanocortin-1 receptor agonist 125I-NDP on B16/F1 melanoma cells
Details: cultured B16/F1 melanoma cells

CC(C)[C@H](NC(=O)[C@@H]1CCCN1C(=O)[C@H](CCCNC(=N)N)NC(=O)[C@H](CS)NC(=O)[C@H](Cc1c[nH]c2ccccc12)NC(=O)[C@H](CCCNC(=N)N)NC(=O)[C@@H](Cc1ccccc1)NC(=O)[C@H](Cc1c[nH]cn1)NC(=O)[C@H](CCC(=O)O)NC(=O)[C@H](CS)NC(=O)[C@H](CS)NC(=O)CN1CCN(CC(=O)O)CCN(CC(=O)O)CCN(CC(=O)O)CC1)C(N)=O [DOTA-ReCCMSH] ({DOTA}-CCEH[dF]RWCRPV-NH2)
IC50: 2.1 nM
